Protein sequences can lack the tags named with them.

Chains of the proteins cited; added tags and fusions are not shown. Lines headed by an entry give the natural chain unless they say otherwise; changes in a name come on top.
UniProt P03870: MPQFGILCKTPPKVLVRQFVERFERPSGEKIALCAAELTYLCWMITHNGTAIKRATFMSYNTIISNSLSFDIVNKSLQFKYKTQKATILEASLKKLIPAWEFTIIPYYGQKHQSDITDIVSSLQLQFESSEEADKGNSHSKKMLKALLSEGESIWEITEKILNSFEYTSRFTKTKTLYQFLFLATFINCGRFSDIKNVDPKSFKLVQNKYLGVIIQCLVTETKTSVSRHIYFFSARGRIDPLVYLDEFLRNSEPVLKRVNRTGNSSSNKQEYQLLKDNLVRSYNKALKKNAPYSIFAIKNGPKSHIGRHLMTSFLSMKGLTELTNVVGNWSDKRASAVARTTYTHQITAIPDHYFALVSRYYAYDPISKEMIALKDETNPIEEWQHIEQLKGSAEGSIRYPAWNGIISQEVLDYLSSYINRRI

The target in the data set is T1, FLP recombinase (UniProt P03870).
T1 sequence (limits assumed): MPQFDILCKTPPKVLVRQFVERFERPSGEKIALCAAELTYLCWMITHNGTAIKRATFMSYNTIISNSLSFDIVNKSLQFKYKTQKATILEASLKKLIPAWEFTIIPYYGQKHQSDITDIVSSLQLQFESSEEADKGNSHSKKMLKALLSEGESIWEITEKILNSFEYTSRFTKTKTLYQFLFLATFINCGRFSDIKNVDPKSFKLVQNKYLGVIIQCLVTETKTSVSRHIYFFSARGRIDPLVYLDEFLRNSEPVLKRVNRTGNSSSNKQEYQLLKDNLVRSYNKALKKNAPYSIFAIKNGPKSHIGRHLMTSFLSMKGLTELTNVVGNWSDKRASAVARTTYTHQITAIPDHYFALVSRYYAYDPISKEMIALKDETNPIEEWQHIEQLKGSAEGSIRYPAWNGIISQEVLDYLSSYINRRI
In words: activity in cells. The following applies: correct excision (only gntR left); 10 of 60 retained kanR; 1 of 60 lost all resistances; protein in cells; variant of FRTwt; only the site is given.

For the sequence “GAAGTTCCTATTCCGAAGTTCCTATTCTCATATAAGTATAGGAACTTC (double strand) [FRT13]”, the “activity on this sequence” value was “active”.
